Values quoted from earlier work in patent US20110184379A1, “METHOD AND SYSTEM TO DEFINE PATIENT SPECIFIC THERAPEUTIC REGIMENS BY MEANS OF PHARMACOKINETIC AND PHARMACODYNAMIC TOOLS” (MEDTRONIC, INC., priority 2008, published 2011).
At least one structure is not confirmed: it was looked up by name or label, or the drawing left a doubt.

Assays:
[1] = test system: hepatitis C virus (HCV) genotype 1; conditions: patients with genotype 1 virus, orally active
[2] = test system: genotype 1 chronic hepatitis C virus (HCV) infection; conditions: 24-week regimen: 12 weeks Telaprevir + peg-IFN + RBV, then 12 weeks peg-IFN + RBV; intent-to-treat, 60 of 115

## CCC[C@H](NC(=O)[C@@H]1[C@H]2CCC[C@H]2CN1C(=O)[C@@H](NC(=O)[C@@H](NC(=O)c1cnccn1)C1CCCCC1)C(C)(C)C)C(=O)C(=O)NC1CC1 [Telaprevir]
[1]
  effect on plasma HCV RNA: reduce plasma HCV RNA
[2]
  patients maintaining undetectable HCV RNA 12 weeks post-treatment (SVR12): 52%
